Data: patent US20180118806A1 (MIT, published 2018)
Where a chain is given by its changes, count along the chain named. These are yes or no findings as the source states them, for the method shown. Some entries that bind do so weakly or less than the wild type.

By UniProt entry, the sequences of proteins in these tests, tags left out. Residues count along the entry.
UniProt P13501, residues 24-91: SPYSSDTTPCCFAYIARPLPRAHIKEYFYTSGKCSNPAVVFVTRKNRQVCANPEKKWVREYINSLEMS

B1: SZ185a = CCR5QTY(185a) (receptor)
chain: MDYQVSSPIYDINYYTSEPCQKINVKQIAARQQPPQYSQTFTFGYTNMQTTQTQTNCKRLKSMTDIYLQNQAISDQYYQFWAPYNTVQQLNTFQEFFGLNNCSSSNRLDQAMQTTETQGMTHCCTNPIIYAFTGEKFRNYLLVFFQKHIAKRFCKCCSIFQQEAPERASSVYTRSTGEQEISVGL
B2: SZ186a = CCR5QTY(186a) (receptor)
chain: MDYQVSSPIYDINYYTSEPCQKINVKQIAARQQPPQYSQTFTFGFTGNMQTTQTQINCKRLKSMTDIYQQNQATSDQYYQYWAPYNTVQQQNTFQEFFGLNNCSSSNRLDQAMQVTETQGMTHCCTNPTIYAYVGEKFRNYLLVFFQKHIAKRFCKCCSIFQQEAPERASSVYTRSTGEQEISVGL
B3: SZ352a = CCR5QTY(352a) (receptor)
chain: MDYQVSSPIYDINYYTSEPCQKINVKQIAARQQPPQYSQTFTYGFTGNMQTTQTQINCKRLKSMTDIYLQNQAISDQYYQQTTPYWAHYAAAQWDFGNTMCQQQTGQYFTGYYSGTYYTTQQTTDRYLAVVHAVFALKARTTTYGTTTSTTTWTTATYASQPGTTYTRSQKEGLHYTCSSHFPYSQYQFWKNFQTLKITIQGQVQPQQTMVTCYSGTQKTLLRCRNEKKRHRAVRQTFTTMTTYYQYWAPYNTTQQLNTFQEFFGLNNCSSSNRLDQAMQVTETQGMTHCCTNPTIYAYVGEKFRNYLLVFFQKHIAKRFCKCCSIFQQEAPERASSVYTRSTGEQEISVGL
modifications: labelled with a dye in the MST assay (dye and site not stated for this variant)
notes: Full-length (352 aa) QTY variant of CCR5, used as control in MST; also called CC15-22; full-length (352 aa) CCR5^QTY variant
B4: SZ190b = CCR5QTY(190b) (receptor)
chain: MDYQVSSPIYDINYYTSEPCQKINVKQIAARLQPPQYSQTFTFGFTGNMQTTQTQINCKRLKSMTDIYLQNQAISDQFFQQTTPYWAPYNTVQQQNTFQEFFGLNNCSSSNRLDQAMQVTETQGMTHCCTNPTIYAFVGEKFRNYLLVFFQKHIAKRFCKCCSIFQQEAPERASSVYTRSTGEQEISVGL
modifications: labelled with the dye DY647P1 in the MST assay (site not stated)
notes: Partial QTY variant of CCR5, 190 aa; Dye-labelled in MST; in the yeast 2-hybrid screen the fusion partner is not described; also called 5NA-17: Contig1; CCR5_SZ190b DY647P1
B5: SZ190d CCR5QTY(190d) (receptor)
chain: B4 chain with F78Y, F79Y, Q123L, T133I, V138T
B6: SZ190a = CCR5QTY(190a) (receptor)
chain: B4 chain with L32Q, F41Y, F78Y, Q95L, V119T, T130I, T133I
B7: SZ190c = CCR5QTY(190c) (receptor)
chain: B4 chain with F45Y, T51V, Q123L, T133I, F137Y, V138T
B8: SZ162a = CCR5QTY(162a) (receptor)
chain: MDYQVSSPIYDINYYTSEPCQKINVKQIAARQQPPQYSQTYTFGYTGNMQTTQTQINCKRLKSMTDIYLQNQAISDQFFQQTTPFWAHYAAAQWDFGNTMCQQQTGQYFTGEKFRNYLLVFFQKHIAKRFCKCCSIFQQEAPERASSVYTRSTGEQEISVGL
B9: SZ218a = CCR5QTY(218a) (receptor)
chain: MDYQVSSPIYDINYYTSEPCQKINVKQIAARQQPPQYSQTYTFGFTGNMQTTQTQINCKRLKSMTDIYLQNQAISDQFFQQTTPFWAHYAAAQWDFGNTMCQQQTGQYFTGYYSGTYYTTQQLNTFQEFFGLNNCSSSNRLDQAMQTTETQGMTHCCINPTTYAYVGEKFRNYLLVFFQKHIAKRFCKCCSIFQQEAPERASSVYTRSTGEQEISVGL
modifications: labelled with the dye DY647P1 in the MST assay (site not stated)
notes: Dye-labelled in MST; fusion partner in yeast 2-hybrid not described; also called 5NA-43; CCR5_SZ218a DY647P1

What follows are binders tested against Rantes (CCL5) (UniProt P13501) (assay: yeast 2-hybrid screen and yeast mating selection).

**Q.** B1 was tested. Which binding did it give?
**A.** Its binding is “binds”.

**Q.** With B2 as the binder, how does the binding read?
**A.** The binding was “binds”.

**Q.** How did the binding turn out when B3 was run?
**A.** Its binding is “binds”.

**Q.** For B4, which binding is on record?
**A.** Its binding is “binds”.

**Q.** With B5 as the binder, how does the binding read?
**A.** The binding was “binds”.

**Q.** For B6, which binding is on record?
**A.** The binding was “binds”.

**Q.** For B7, which binding is on record?
**A.** Its binding is “binds”.

**Q.** With B8 as the binder, how does the binding read?
**A.** The binding was “binds”.

**Q.** With B9 as the binder, how does the binding read?
**A.** The binding was “binds”.

The binders below were run against Rantes (CCL5) (UniProt P13501) (assay: MST, dye-labelled variant at 5 nM, Rantes titrated).

**Q.** How did the binding turn out when B4 was run?
**A.** The binding was “binds”.

**Q.** Which binding does the source give for B9 here?
**A.** Its binding is “binds”.
